Experimental data from paper PMC12884746.
These are yes or no findings as the source states them, for the method shown. Binding seen in cells or lysates may run through a third protein. Some binding calls cover weakened binding; strength is not graded here.

Amino acid sequences for entries named in this document (tags omitted). A change or cut given only in a name is not applied to a line headed by its entry. Chains listed by the source or under a name are the forms on record and can include a tag or linker. Residues count along the entry.
C‐terminal Flag‐tagged CD44s (P16070, form named): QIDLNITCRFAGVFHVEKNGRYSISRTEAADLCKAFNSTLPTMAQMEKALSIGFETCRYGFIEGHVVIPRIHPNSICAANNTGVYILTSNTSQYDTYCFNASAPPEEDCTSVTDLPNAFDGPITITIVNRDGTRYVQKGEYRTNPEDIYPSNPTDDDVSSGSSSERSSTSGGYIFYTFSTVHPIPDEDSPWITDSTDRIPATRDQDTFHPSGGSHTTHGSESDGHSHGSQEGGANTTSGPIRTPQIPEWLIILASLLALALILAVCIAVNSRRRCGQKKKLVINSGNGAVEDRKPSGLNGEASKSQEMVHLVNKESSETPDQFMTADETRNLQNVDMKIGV
UniProt P98066, residues 18-277: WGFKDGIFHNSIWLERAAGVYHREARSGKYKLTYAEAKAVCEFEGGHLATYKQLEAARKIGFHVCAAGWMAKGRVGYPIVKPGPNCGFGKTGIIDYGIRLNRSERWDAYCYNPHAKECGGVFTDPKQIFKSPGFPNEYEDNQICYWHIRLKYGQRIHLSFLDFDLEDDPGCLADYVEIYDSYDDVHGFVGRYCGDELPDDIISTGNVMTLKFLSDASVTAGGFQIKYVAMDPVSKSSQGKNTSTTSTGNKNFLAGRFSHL

Legend:
[1] = target: N‐terminal MYC‐tagged CD44s (human) (UniProt P16070); assay: proximity ligation; PLA on MYC and Flag tags; N-MYC-CD44s overexpressing 19TT cells treated for 2 h with control EVs or EVs carrying Flag-TSG6; fixed, permeabilised, Duolink reagents, super-resolution imaging
[2] = target: C‐terminal Flag‐tagged CD44s (human) (UniProt P16070); assay: proximity ligation; PLA between receptors in 19TT cells, treated for 2 h with vehicle, TGF-β, con-EVs or TGF-β-EVs; fixed, permeabilised, Duolink reagents, super-resolution imaging

Row | binding [1] | binding [2] | Molecule
1 | binds | – | Flag‐TSG6 on EVs from Flag‐TSG6‐overexpressing CAFs (from UniProt P98066 18-277)
2 | – | binds | TGF‐β type I receptor (TGFBR1), endogenous (receptor, UniProt P36897 34-503) LQCFCHLCTKDNFTCVTDGLCFVSVTETTDKVIHNSMCIAEIDLIPRDRPFVCAPSSKTGSVTTTYCCNQDHCNKIELPTTVKSSPGLGPVELAAVIAGPVCFVCISLMLMVYICHNRTVIHHRVPNEEDPSLDRPFISEGTTLKDLIYDMTTSGSGSGLPLLVQRTIARTIVLQESIGKGRFGEVWRGKWRGEEVAVKIFSSREERSWFREAEIYQTVMLRHENILGFIAADNKDNGTWTQLWLVSDYHEHGSLFDYLNRYTVTVEGMIKLALSTASGLAHLHMEIVGTQGKPAIAHRDLKSKNILVKKNGTCCIADLGLAVRHDSATDTIDIAPNHRVGTKRYMAPEVLDDSINMKHFESFKRADIYAMGLVFWEIARRCSIGGIHEDYQLPYYDLVPSDPSVEEMRKVVCEQKLRPNIPNRWQSCEALRVMAKIMRECWYANGAARLTALRIKKTLSQLSQQEGIKM
